# For at least one compound, name, drawing or mass did not settle the structure.
# Tests used:
# platelets = test: Platelet aggregation in platelet rich plasma (turbidometric method of Born); type: cell-based, human; details: 10 μM, ADP as platelet agonist
# Human blood = test: PFA-100 clotting (closure) time in human blood; type: cell-based; details: vs vehicle alone, p=0.019
# Method: Platelet activation was induced using epinephrine or ADP, and clotting time was assessed using a PFA-100. The PFA-100 allows for an approximation of bleeding times in patients. Longer closure times equal a lower ability to form a clot. […] Human blood was exposed to 15d-PGJ2 or vehicle only followed by testing in the PFA-100 activated with ADP.
compound,measurement,setting,value
CN(CCOc1ccc(CC2SC(=O)NC2=O)cc1)c1ccccn1 (centres unmarked) [rosiglitazone],aggregation slope (rate),platelets,decrease the aggregation slope
same,"PFA-100 closure time, epinephrine activated",Human blood,takes longer to form a closure
